Source: PubChem BioAssay AID504444 (National Center for Advancing Translational Sciences (NCATS), 2011)
Screen size: about 360,000 compounds; about 7,500 (2.1%) were called active. Inconclusive results, whose numbers are uncertain, are shown with a selection of clear calls. The call rests on the fitted dose curve; in most records, active means well fitted inhibition curve with a large enough effect; inconclusive means small, poorly fitted or top-dose-only effect, or effect the other way; inactive means flat fitted curve, though single readings scatter. Potencies of inconclusive entries are doubtful fits and often do not repeat.

Assay: Nrf2 qHTS screen for inhibitors; further: nearly all actives have a fitted effect of over 60% in size
Conditions: A549 ARE-Fluc reporter, luciferase luminescence, 18-24 h; series mostly up to 46 µM
Method in brief: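 Nrf2 function is reported as luminescence of an ARE-controlled luciferase in A549 cells. Compounds were tested at several concentrations, and a CellTiter-Fluor read on the same wells flagged cytotoxicity.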
Potency means the concentration at half of the fitted maximal effect.

| Structure (SMILES) | Potency |
| --- | --- |
| Cc1ccc(NC(=O)C(=O)c2cc(C)n(-c3ccc(F)cc3)c2C)cc1C | inactive |
| COCCNc1nc(-n2nc(C)cc2C)nc2sc3c(c12)CCCC3 | inconclusive: 29.1 µM [falling, single point] |
| Nc1c(-c2cccc([N+](=O)[O-])c2)nc2ccccn12 | inactive |
| CN(Cc1ccccc1)S(=O)(=O)c1ccc(NC(=S)NC(=O)C(C)(C)C)cc1 | inactive |
| N#CC1=C(N)C(C#N)(C#N)[C@H](c2cccnc2)[C@H]2CN(C(=O)OCc3ccccc3)CC=C12 | inconclusive: 29.1 µM [falling, single point] |
| O=c1oc2ccccc2c(O)c1/C=C1\C=Nc2ccccc21 | inactive |
| Cc1ccc(-n2nnnc2SCC(=O)Nc2cccnc2Cl)cc1 | inconclusive: 20.6 µM [falling, single point] |
| CCc1nnc2c3cnn(-c4ccccc4)c3ncn12 | inconclusive: 31.6 µM [activator, single point] |
| COC(=O)c1scc(C)c1S(=O)(=O)Nc1ccc(C)cc1 | inconclusive: 16.4 µM [falling, single point] |
| COc1ccc(NCc2cccn2-c2nnc(N3CCCCCC3)s2)cc1 | inconclusive: 4.11 µM [falling, partial curve, poor fit] |
| Oc1oc(-c2ccccc2)nc1C=Nc1ccccc1 | inconclusive: 8.2 µM [activator, partial curve] |
| COCCN1CCN(C(=O)c2ccc3oc(CCCc4ccccc4)nc3c2)CC1 | inconclusive: 14.6 µM [activator, partial curve, poor fit] |
| Cc1ccc(S(=O)(=O)c2cn(Cc3ccccc3)c3cc(N4CCCCC4)c(F)cc3c2=O)cc1 | inactive |
| Cc1[nH]c2ccccc2c1C(=O)COC(=O)c1cccc(S(=O)(=O)N2CCCCC2)c1 | inconclusive: 29.1 µM [falling, single point] |
| CC(C)c1nc2oc3c(N(C)CCO)ncnc3c2c2c1CCC2 | inconclusive: 29.1 µM [falling, single point] |
| Cc1cccc(-c2nc(CS(=O)CC(=O)N3CCCCC3)c(C)o2)c1 (centres undefined) | inconclusive: 14.6 µM [falling, partial curve, poor fit] |
| CN(C)CCCN1C(=O)c2cccc3cccc(c23)C1=O | inconclusive: 29.1 µM [falling, single point] |
| N#Cc1ccccc1CSc1nc2ncc(Br)cc2[nH]1 | inconclusive: 14.6 µM [activator, partial curve] |
| O=C(NCc1ccco1)c1ccc(Cn2c(SCc3ccccc3)nc3cccnc32)cc1 | inconclusive: 29.1 µM [falling, single point] |
| O=C(Cc1cccs1)NCc1cccc(F)c1 | inconclusive: 18.4 µM [activator, partial curve] |
| CCn1ncc(CNC(=O)CCSc2nc(-c3ccco3)cc(C(F)(F)F)n2)c1C | inconclusive: 16.4 µM [falling, partial curve] |
| Cc1cc(SCc2ccc(Cl)cc2)nc(=O)[nH]1 | inconclusive: 16.4 µM [falling, partial curve, poor fit] |

4 entries from above, as comma-separated lines:
Structure (SMILES),Potency
CN(Cc1ccccc1)S(=O)(=O)c1ccc(NC(=S)NC(=O)C(C)(C)C)cc1,inactive
N#CC1=C(N)C(C#N)(C#N)[C@H](c2cccnc2)[C@H]2CN(C(=O)OCc3ccccc3)CC=C12,"inconclusive: 29.1 µM [falling, single point]"
O=c1oc2ccccc2c(O)c1/C=C1\C=Nc2ccccc21,inactive
Cc1ccc(-n2nnnc2SCC(=O)Nc2cccnc2Cl)cc1,"inconclusive: 20.6 µM [falling, single point]"

(continued)

| Structure (SMILES) | Potency |
| --- | --- |
| COc1cc(OC)c(NC(=O)CCS(=O)(=O)c2ccc3c(c2)oc(=O)n3C)cc1Cl | inconclusive: 14.6 µM [activator, partial curve, poor fit] |
| CC(=O)c1ccc(NC(=O)C2CCN(c3nnc(C)c4c(C)n(-c5ccccc5)nc34)CC2)cc1 | inconclusive: 16.4 µM [falling, partial curve, poor fit] |
| COc1ccc(C(=O)Nc2ccccn2)cc1S(=O)(=O)N1CCOCC1 | inactive |
| O=C(NC1CCCC1)C1CCN(S(=O)(=O)N2CCCCC2)CC1 | inconclusive: 6.51 µM [activator, partial curve, poor fit] |
| COc1ccccc1C(=O)OCc1nc(N)nc(Nc2ccccc2C)n1 | inconclusive: 29.1 µM [activator, single point] |
| COc1ccc(S(=O)(=O)N2CCOCC2)cc1NC(=O)c1ccc(S(=O)(=O)N2CCCCC2)cc1 | inactive |
| CCc1ccccc1NC(=O)CN(C)C(=O)COC(=O)c1c(Cl)cccc1Cl | inconclusive: 25.9 µM [falling, single point] |
| O=C1CC(N2CCN(c3ccc(F)cc3)CC2)C(=O)N1Cc1ccc(N2CCCC2=O)cc1 (centres undefined) | inconclusive: 14.6 µM [falling, partial curve] |
| COc1ccc(/C=N/NC(=S)Nc2ccccc2[N+](=O)[O-])cc1O | inactive |
| CCOc1cc(C(=O)NCc2ccco2)cc(OCC)c1OCC | inactive |
| C[C@H]1CN([C@@H](C)CO)C(=O)c2cccc(NS(=O)(=O)c3ccc(F)cc3)c2O[C@H]1CN(C)Cc1ccc(Cl)c(Cl)c1 | active: 5.17 µM |
| COc1ccc(/C=N/Nc2nonc2N)cc1OC | inconclusive: 0.92 µM [activator, full curve, poor fit] |
| CN(C)S(=O)(=O)c1ccc(C(=O)OCc2ccc([N+](=O)[O-])cc2)cc1 | inconclusive: 6.51 µM [activator, full curve, poor fit] |
| CCc1ccc(-c2cc(C)no2)cc1S(=O)(=O)N1CCN(c2ccccn2)CC1 | inconclusive: 23.1 µM [falling, partial curve, poor fit] |
| CCc1ccc(-n2nc(CO)c(C(=O)NCCOC)n2)cc1 | inconclusive: 25.9 µM [activator, single point] |
| Cc1ccc(S(=O)(=O)N2CCN(C(=O)c3cc(S(=O)(=O)N4CCOCC4)c(Cl)cc3Cl)CC2)cc1 | inconclusive: 10.3 µM [falling, partial curve] |
| CC1=CC(C)(C)Nc2ccc(OC(=O)CN3C(=O)C4CCCCC4C3=O)cc21 (centres undefined) | inconclusive: 25.9 µM [falling, single point] |
| COc1ccc(Nc2nc(N)nc(CSc3nc(C)cc(C)n3)n2)cc1 | inconclusive: 23.1 µM [falling, partial curve, poor fit] |
| COc1ccc(OC)c(S(=O)(=O)N2CCC(n3c(C)nc4cccnc43)CC2)c1 | inconclusive: 18.4 µM [activator, partial curve] |
| O=C(CCC(=O)N1CCN(c2ccc(C(F)(F)F)cn2)CC1)c1cccs1 | inconclusive: 14.6 µM [falling, partial curve] |
| COc1ccc(CCNC(=O)c2nnn(-c3cccc(C)c3)c2N)cc1OC | inconclusive: 23.1 µM [falling, single point] |
| O=C1NC(=S)NC1=Cc1ccc2c(c1)CCC2 | inactive |

| Structure (SMILES) | Potency |
| --- | --- |
| O=C(COC(=O)c1cccnc1Cl)Nc1ccc(N2CCCCC2)cc1 | inconclusive: 16.4 µM [activator, single point] |
| COc1cc(NC(=O)c2ccccc2)cc(OC)c1 | inconclusive: 11.6 µM [activator, partial curve] |
| Cn1cccc1C(=O)Nc1ccc(N2CCOCC2)cc1 | inconclusive: 0.206 µM [activator, partial curve] |
| CCc1ccc(N=C2NC(=O)/C(=C/c3cc(OC)c(OC)c(OC)c3)S2)cc1 | inconclusive: 29.1 µM [falling, single point] |
| Clc1cccc(Oc2cnc3ccccc3n2)c1 | inconclusive: 29.1 µM [activator, single point] |
| COc1ccc(-c2noc(-c3ccc(N4CCOCC4)c([N+](=O)[O-])c3)n2)cc1 | inconclusive: 32.6 µM [falling, single point] |
| COc1ccccc1NC(=O)N(CCN1CCOCC1)Cc1cc2cc(C)cc(C)c2[nH]c1=O | inconclusive: 0.058 µM [falling, partial curve, poor fit] |
| Cc1cc(N2CCCC2)nc(-c2ccccc2O)n1 | inconclusive: 25.9 µM [activator, single point] |
| COc1ccc(Oc2nc(-c3ccccc3)ncc2C(=O)O)cc1 | inconclusive: 23.1 µM [falling, single point] |
| CCOc1cc(C)c(S(=O)(=O)Nc2ccc(Cl)cn2)cc1C | inconclusive: 29.1 µM [falling, single point] |
| CC(=O)Oc1cc2c(c3ccccc13)CCC2=O | inactive |
| O=C(Nc1nc(-c2ccc(F)c(F)c2)cs1)Nc1ccc(F)cc1F | inconclusive: 29.1 µM [falling, single point] |
| COc1ccccc1NS(=O)(=O)c1cc(NC(=O)c2ccncc2)ccc1N1CCOCC1 | inconclusive: 16.4 µM [falling, partial curve, poor fit] |
| COc1ccc(C)cc1NC(=O)CSc1nnc2ccc(-c3cccnc3)nn12 | inconclusive: 29.1 µM [falling, partial curve, poor fit] |
| CCOC(=O)C1CCCN(C(=O)CN2C(=O)c3ccccc3C2=O)C1 (centres undefined) | inconclusive: 1.3 µM [falling, full curve] |
| Cc1cccc(N2CCN(C(=O)c3ccccc3NC(=O)C3=CSCCO3)CC2C)c1 (centres undefined) | inconclusive: 25.9 µM [falling, partial curve, poor fit] |
| CC(=O)N1CCc2cc(Br)cc(S(=O)(=O)N3CCC(C(=O)Nc4cccc(C)c4C)CC3)c21 | inactive |
| Cc1ccc(-c2nc3sc4c(N)ncnc4c3c3c2CCCC3)cc1 | inconclusive: 0.517 µM [activator, full curve, poor fit] |
| O=C(Nc1ccc(S(=O)(=O)N2CCC(c3nc4ccccc4s3)CC2)cc1)c1ccccc1 | inconclusive: 29.1 µM [activator, single point] |
| Nc1ccc2nc(SCC(=O)N3CCN(c4ccccc4)CC3)sc2c1 | inconclusive: 23.1 µM [falling, single point] |
